Results deposited as PubChem BioAssay AID504744 (Drosophila RNAi Screening Center, 2011)
The screen tested about 23,000 reagents; shown is a random part of those with a known target gene and a result. Over the whole deposit, 98 (0.43%) are marked active. 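Only hit calls are given; the phospho-dAkt signals, z-scores and hit direction were not deposited.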 Names joined by + are all predicted targets of the reagent.

- Screen: 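Uncover factors, including feedback loops, that control dAkt activation in fly cells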 (primary screen)
- Cells: Drosophila Kc167 cells
- Reagent: long dsRNA against Drosophila genes, 250 ng dsRNA per well of a 384-well plate
- Timing: 3 days of knock-down, then overnight serum-free starvation before stimulation
- Treatment: bovine insulin at 387 nM for 10 minutes after 12 h without serum
- Measured: 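Per-well phospho-dAkt level from an in-cell fluorescent antibody stain, divided by a DNA-dye signal; log2 residuals turned into z-scores that take cell number into account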
- Rule for the call: 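Hit in the insulin screen when the two-replicate mean z-score is more extreme than plus or minus 2.5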

gene knocked down,DRSC id,call
Vps13,DRSC06817,inactive
dnt,DRSC03522,inactive
Pfdn6,DRSC10915,inactive
Optix,DRSC05078,inactive
Optix,DRSC07484,inactive
Optix,DRSC21963,inactive
CG9380,DRSC04549,inactive
CG6951,DRSC10755,inactive
Cdc45,DRSC17747,inactive
Cdc45,DRSC18164,inactive
CG30275,DRSC04163,inactive
CG33233,DRSC08239,inactive
Ugt35D1,DRSC15107,inactive
CG7966,DRSC16356,inactive
CG32640 + CG32641,DRSC22885,inactive
Acox57D-d,DRSC04561,inactive
Rift,DRSC14330,inactive
RpS4,DRSC11272,inactive
CG4293,DRSC18557,inactive
CG7691,DRSC16287,inactive
dpr11,DRSC12561,inactive
dpr11,DRSC12562,inactive
dpr11,DRSC12563,inactive
Cyp304a1,DRSC16623,inactive
CG1537,DRSC19662,inactive
Ppr-Y,DRSC20892,inactive
sd,DRSC20370,inactive
sd,DRSC21712,inactive
CG4313,DRSC18514,inactive
CG11106,DRSC19381,inactive
mask,DRSC15370,inactive
mask,DRSC16005,inactive
mask,DRSC16018,inactive
Pfk,DRSC07506,inactive
CG33090,DRSC01908,inactive
Cyt-b5-r,DRSC03308,inactive
mRpS9,DRSC12645,inactive
mRpS9,DRSC15456,inactive
CG14074,DRSC10079,inactive
Prosbeta7,DRSC12186,inactive
iav,DRSC18363,inactive
CG10927,DRSC06014,inactive
CG3744,DRSC15511,inactive
ArgRS-m,DRSC14186,inactive
CG12716,DRSC19493,inactive
CG11600,DRSC14332,inactive
Tango1,DRSC02127,inactive
CG2577,DRSC19863,inactive
CG3860,DRSC04425,inactive
PolI,DRSC16267,inactive
Prp18,DRSC16802,inactive
CG11597,DRSC09847,inactive
su(sable),DRSC18839,inactive
CG3735,DRSC04411,inactive
Ptp10D,DRSC20272,inactive
tmod,DRSC13993,inactive
tmod,DRSC14314,inactive
tmod,DRSC15076,inactive
tmod,DRSC17062,inactive
His2Av,DRSC16702,inactive
CG5946,DRSC10560,inactive
CadN,DRSC03286,inactive
CG32551,DRSC19259,inactive
CG14676,DRSC12262,inactive
stc,DRSC03620,inactive
Naam,DRSC16252,inactive
CG10750,DRSC02105,inactive

18 entries from above, set out differently.
CG14074 [DRSC10079]
- call: inactive

Prosbeta7 [DRSC12186]
- call: inactive

iav [DRSC18363]
- call: inactive

CG10927 [DRSC06014]
- call: inactive

CG3744 [DRSC15511]
- call: inactive

ArgRS-m [DRSC14186]
- call: inactive

CG12716 [DRSC19493]
- call: inactive

CG11600 [DRSC14332]
- call: inactive

Tango1 [DRSC02127]
- call: inactive

CG2577 [DRSC19863]
- call: inactive

CG3860 [DRSC04425]
- call: inactive

PolI [DRSC16267]
- call: inactive

Prp18 [DRSC16802]
- call: inactive

CG11597 [DRSC09847]
- call: inactive

su(sable) [DRSC18839]
- call: inactive

CG3735 [DRSC04411]
- call: inactive

Ptp10D [DRSC20272]
- call: inactive

tmod [DRSC13993]
- call: inactive

The list goes on.
gene knocked down,DRSC id,call
Dso1,DRSC21815,inactive
CG32027 (retired record),DRSC09571,inactive
CG11362,DRSC04106,inactive
CG11362,DRSC22032,inactive
CG17124,DRSC02580,inactive
TwdlV,DRSC12226,inactive
CheB53b,DRSC05613,inactive
CG31855,DRSC02968,inactive
CG3339,DRSC13821,inactive
CG3339,DRSC15479,inactive
CG15390,DRSC00404,inactive
CG13160,DRSC06284,inactive
CG10154,DRSC09707,inactive
CG3552,DRSC10370,inactive
p115,DRSC18813,inactive
CG44774,DRSC18342,active
asRNA:Eig63F-2 + Eip63F-1,DRSC21446,inactive
Ptp69D,DRSC11258,inactive
parvin,DRSC19468,inactive
CG30350,DRSC07690,inactive
CG17732,DRSC10283,inactive
crol,DRSC03514,inactive
crol,DRSC21348,inactive
CG12259,DRSC14486,inactive
Kr-h2,DRSC03356,inactive
Herp,DRSC02394,inactive
CG15048 (retired record),DRSC19624,inactive
cora,DRSC07597,inactive
CG9514,DRSC20190,inactive
CG9514,DRSC20191,inactive
CG14011,DRSC02343,inactive
CG18635,DRSC06780,inactive
PH4alphaNE3,DRSC16541,inactive
Bap55,DRSC07000,inactive
mtt,DRSC05106,inactive
mtt,DRSC05107,inactive
mtt,DRSC06753,inactive
mtt,DRSC07235,inactive
CG5644,DRSC10531,inactive
Hk,DRSC17638,inactive
Hk,DRSC18674,inactive
